PubChem BioAssay AID1224830 – NIAID – 2016
The whole screen tested about 18,000 reagents; below is a part drawn at random. In the full data, about 2,900 (16%) were called active. 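Calls are made per well; low scores hint the gene aids the LPS response, high scores that it dampens it.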 Entries without a mark were called inactive. Repeated entries: four replicate wells of each siRNA pool.

- Assay: 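Host factors that control LPS-induced TNF expression in human macrophages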 (primary screen)
- System: human THP-1 monocytic leukaemia cells, TNF dual-luciferase reporter clone, PMA-differentiated to macrophage-like cells
- Reagents: siRNA pool against human genes, 50 nM
- Timing: LPS for 4 h, given about 3 days after siRNA transfection
- Conditions: bacterial LPS (TLR4 ligand), 10 ng/ml
- Measurement: 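TNF firefly reporter luminescence divided by renilla, normalised to the plate median, then turned into a robust z-score for each replicate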
- Direction: TNF reporter robust z-score: higher = stronger TNF reporter response to LPS
- Hit rule: 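a well is active when its z-score exceeds 2.8 or falls below -1.5; control wells carry no call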

Against CRIP2, the entry reads TNF reporter robust z-score -0.19.
Depletion of CRIP2 came out at: TNF reporter robust z-score 0.56.
Silencing of CRIP2 resulted in: TNF reporter robust z-score 0.92.
With knock-down of CRIP2, the record shows TNF reporter robust z-score 0.33.
Silencing of MRPL1 came out at: TNF reporter robust z-score 1.09.
Against MRPL1 the deposit lists TNF reporter robust z-score 0.04.
Depletion of MRPL1 resulted in: TNF reporter robust z-score -0.7.
MRPL1 scored TNF reporter robust z-score 1.
For TMEM39A the deposit lists TNF reporter robust z-score 0.4.
For TMEM39A, the values are TNF reporter robust z-score 0.17.
Knock-down of TMEM39A resulted in: TNF reporter robust z-score -0.25.
Depletion of TMEM39A gave: TNF reporter robust z-score 0.96.
For EBF3, the entry reads TNF reporter robust z-score 1.15.
After knock-down of EBF3, the record shows TNF reporter robust z-score 0.59.
Silencing of EBF3 came out at: TNF reporter robust z-score 1.75.
Depletion of EBF3 gave: TNF reporter robust z-score -0.05.
After knock-down of PEMT, the record shows TNF reporter robust z-score 0.6.
Knock-down of PEMT gave: TNF reporter robust z-score 0.88.
With knock-down of PEMT the results were TNF reporter robust z-score 0.13.
Against PEMT the deposit lists TNF reporter robust z-score -0.34.
After knock-down of TALDO1 the results were TNF reporter robust z-score 0.88.
After knock-down of TALDO1 the results were TNF reporter robust z-score 1.33.
TALDO1 gave TNF reporter robust z-score 0.54.
Knock-down of TALDO1 gave: TNF reporter robust z-score 0.24.
CLU scored TNF reporter robust z-score -0.49.
CLU scored TNF reporter robust z-score -0.26.
For CLU the deposit lists TNF reporter robust z-score -0.39.
With knock-down of CLU the results were TNF reporter robust z-score 0.32.
ADAMTS18 gave TNF reporter robust z-score -0.18.
Knock-down of ADAMTS18 gave: TNF reporter robust z-score -0.54.
After knock-down of ADAMTS18 the results were TNF reporter robust z-score -0.67.
Silencing of ADAMTS18 gave: TNF reporter robust z-score 1.48.
LYSMD4 scored TNF reporter robust z-score 0.88.
Knock-down of LYSMD4 gave: TNF reporter robust z-score 1.16.
Silencing of LYSMD4 came out at: TNF reporter robust z-score 0.74.
Against LYSMD4, the entry reads TNF reporter robust z-score 1.52.
Against TAPBP the deposit lists TNF reporter robust z-score -0.35.
For TAPBP the deposit lists TNF reporter robust z-score -0.41.
TAPBP showed TNF reporter robust z-score -0.67.
TAPBP gave TNF reporter robust z-score -0.25.
After knock-down of SLIRP-OT1 the results were TNF reporter robust z-score -0.91.
Depletion of SLIRP-OT1 resulted in: TNF reporter robust z-score -1.03.
Silencing of SLIRP-OT1 resulted in: TNF reporter robust z-score 0.19.
Against SCGB3A2, the values are TNF reporter robust z-score -0.24.
Depletion of SCGB3A2 came out at: TNF reporter robust z-score -1.18.
SCGB3A2 showed TNF reporter robust z-score -0.54.
With knock-down of SCGB3A2, the record shows TNF reporter robust z-score -0.86.
With knock-down of PSMD12, the screen gave TNF reporter robust z-score -1.21.
Silencing of PSMD12 resulted in: TNF reporter robust z-score -1.71 (active).
Knock-down of PSMD12 resulted in: TNF reporter robust z-score -1.03.
After knock-down of PSMD12, the screen gave TNF reporter robust z-score -0.88.
For LDHB the deposit lists TNF reporter robust z-score -1.08.
LDHB scored TNF reporter robust z-score -1.03.
LDHB showed TNF reporter robust z-score -0.89.
LDHB gave TNF reporter robust z-score -0.04.
Against KDM1B, the values are TNF reporter robust z-score 0.
After knock-down of KDM1B the results were TNF reporter robust z-score 1.29.
For KDM1B the deposit lists TNF reporter robust z-score -0.25.
Knock-down of KDM1B came out at: TNF reporter robust z-score 1.19.
SESTD1 scored TNF reporter robust z-score -0.54.
Knock-down of SESTD1 came out at: TNF reporter robust z-score -0.99.
Silencing of SESTD1 came out at: TNF reporter robust z-score -0.6.
For SESTD1, the values are TNF reporter robust z-score -0.55.

3 entries from above, arranged by “TNF reporter robust z-score”, highest first:
PSMD12 — TNF reporter robust z-score = -0.88
LDHB — TNF reporter robust z-score = -1.03
LDHB — TNF reporter robust z-score = -1.08
